For one substance, binding results are on record in paper PMC10581003.

Protein sequences, listed by entry. Tags and fused reporters are not part of them.
UniProt P42224: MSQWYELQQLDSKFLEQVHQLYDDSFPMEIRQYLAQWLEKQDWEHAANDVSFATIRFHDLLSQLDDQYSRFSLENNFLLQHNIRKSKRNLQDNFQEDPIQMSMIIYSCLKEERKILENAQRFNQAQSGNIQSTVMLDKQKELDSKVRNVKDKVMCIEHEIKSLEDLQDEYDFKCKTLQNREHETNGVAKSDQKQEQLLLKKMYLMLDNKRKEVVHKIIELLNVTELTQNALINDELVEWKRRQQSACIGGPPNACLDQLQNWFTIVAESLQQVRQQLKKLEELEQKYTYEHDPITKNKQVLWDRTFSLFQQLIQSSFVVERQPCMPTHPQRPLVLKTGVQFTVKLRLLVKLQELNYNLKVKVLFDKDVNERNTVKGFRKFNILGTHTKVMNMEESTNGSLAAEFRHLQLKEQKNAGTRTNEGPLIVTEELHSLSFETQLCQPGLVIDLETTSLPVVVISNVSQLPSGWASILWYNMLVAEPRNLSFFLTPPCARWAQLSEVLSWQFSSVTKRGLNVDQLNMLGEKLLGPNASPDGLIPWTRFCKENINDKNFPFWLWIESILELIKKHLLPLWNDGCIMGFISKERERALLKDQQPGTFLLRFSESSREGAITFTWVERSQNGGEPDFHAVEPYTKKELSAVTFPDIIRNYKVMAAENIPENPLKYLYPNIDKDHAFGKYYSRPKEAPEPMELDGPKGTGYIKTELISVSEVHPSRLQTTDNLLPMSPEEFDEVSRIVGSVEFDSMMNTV

No constants are given. Whether binding was seen depends on the method and setting. In cells and extracts the contact can be indirect. Some binding calls cover weakened binding; strength is not graded here.

The target of the assay is T1, KDM7A (lysine demethylase 7A) (human (endogenous in HepG2)) (UniProt Q6ZMT4).
T1 sequence: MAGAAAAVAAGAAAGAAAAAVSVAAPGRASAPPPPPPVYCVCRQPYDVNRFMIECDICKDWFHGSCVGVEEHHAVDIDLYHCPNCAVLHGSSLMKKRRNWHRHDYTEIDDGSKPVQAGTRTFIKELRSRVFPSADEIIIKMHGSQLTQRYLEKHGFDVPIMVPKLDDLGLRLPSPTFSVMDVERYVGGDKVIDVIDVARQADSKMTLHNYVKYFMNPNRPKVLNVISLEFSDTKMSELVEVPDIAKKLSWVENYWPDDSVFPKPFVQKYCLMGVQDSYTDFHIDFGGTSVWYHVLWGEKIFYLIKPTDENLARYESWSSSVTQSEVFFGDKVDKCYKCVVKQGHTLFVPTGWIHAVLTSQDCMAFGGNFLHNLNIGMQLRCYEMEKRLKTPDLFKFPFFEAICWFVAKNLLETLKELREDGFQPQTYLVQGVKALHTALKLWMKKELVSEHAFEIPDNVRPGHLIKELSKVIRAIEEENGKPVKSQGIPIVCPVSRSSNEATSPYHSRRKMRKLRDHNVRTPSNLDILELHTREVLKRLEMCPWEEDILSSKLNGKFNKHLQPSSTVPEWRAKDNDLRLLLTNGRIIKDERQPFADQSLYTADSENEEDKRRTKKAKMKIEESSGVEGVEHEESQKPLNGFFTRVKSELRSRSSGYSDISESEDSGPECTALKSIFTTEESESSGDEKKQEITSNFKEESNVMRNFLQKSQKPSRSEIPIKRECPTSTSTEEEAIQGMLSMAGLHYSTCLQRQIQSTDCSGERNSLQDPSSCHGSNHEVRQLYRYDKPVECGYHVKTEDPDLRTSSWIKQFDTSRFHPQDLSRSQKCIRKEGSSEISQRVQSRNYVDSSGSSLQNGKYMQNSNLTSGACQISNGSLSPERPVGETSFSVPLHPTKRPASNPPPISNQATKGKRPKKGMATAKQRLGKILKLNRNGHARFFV
As to the kind of experiment: co-IP; HepG2 cells treated with IFN-γ (50 ng/mL), immunoprecipitation and immunoblotting with the indicated antibodies; endogenous proteins; procedure cited from earlier work. In general terms: In western blotting, separated proteins are transferred to a membrane and probed.

As to STAT1 (from UniProt P42224 1-750), the binding result is listed as “binds”.
